Test results reported in the supplement of paper PMC10849652.
The other results are listed elsewhere or left out.

Amino acid sequences for entries named in this document (tags omitted). A change or cut given only in a name is not applied to a line headed by its entry.
UniProt O43929: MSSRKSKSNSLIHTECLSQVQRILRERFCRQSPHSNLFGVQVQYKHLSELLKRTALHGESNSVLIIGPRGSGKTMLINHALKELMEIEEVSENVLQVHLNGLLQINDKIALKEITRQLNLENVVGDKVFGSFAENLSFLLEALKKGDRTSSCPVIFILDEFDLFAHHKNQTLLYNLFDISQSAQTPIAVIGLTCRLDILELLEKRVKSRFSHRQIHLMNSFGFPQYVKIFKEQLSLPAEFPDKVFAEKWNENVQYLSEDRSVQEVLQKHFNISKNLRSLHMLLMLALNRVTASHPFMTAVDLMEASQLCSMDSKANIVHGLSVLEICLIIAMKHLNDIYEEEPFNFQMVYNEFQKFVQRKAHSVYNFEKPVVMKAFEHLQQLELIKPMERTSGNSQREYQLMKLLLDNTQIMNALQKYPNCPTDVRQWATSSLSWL
UniProt Q9BRJ7: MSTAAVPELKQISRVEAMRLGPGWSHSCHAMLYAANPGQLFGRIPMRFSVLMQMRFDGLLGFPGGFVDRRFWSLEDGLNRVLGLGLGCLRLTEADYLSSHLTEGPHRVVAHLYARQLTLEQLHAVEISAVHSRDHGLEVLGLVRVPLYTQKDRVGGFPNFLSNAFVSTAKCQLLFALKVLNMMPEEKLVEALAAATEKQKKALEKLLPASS
UniProt Q86UY8: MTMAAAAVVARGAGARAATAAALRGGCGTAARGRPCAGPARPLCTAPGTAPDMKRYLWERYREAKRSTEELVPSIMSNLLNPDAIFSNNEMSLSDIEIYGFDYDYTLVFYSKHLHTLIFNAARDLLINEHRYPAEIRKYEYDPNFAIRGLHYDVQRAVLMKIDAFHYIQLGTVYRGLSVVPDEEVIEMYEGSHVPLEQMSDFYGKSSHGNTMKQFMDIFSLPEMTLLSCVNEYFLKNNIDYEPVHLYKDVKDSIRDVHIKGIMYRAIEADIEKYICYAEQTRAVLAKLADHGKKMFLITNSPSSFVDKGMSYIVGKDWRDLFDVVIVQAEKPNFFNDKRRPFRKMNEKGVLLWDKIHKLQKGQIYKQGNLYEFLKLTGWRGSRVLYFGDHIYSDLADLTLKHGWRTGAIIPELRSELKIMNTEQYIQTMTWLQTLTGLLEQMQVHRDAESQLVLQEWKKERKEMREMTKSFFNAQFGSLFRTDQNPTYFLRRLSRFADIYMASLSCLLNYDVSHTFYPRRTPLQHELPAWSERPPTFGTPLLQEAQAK
UniProt Q96CV9, whole entry, looked up: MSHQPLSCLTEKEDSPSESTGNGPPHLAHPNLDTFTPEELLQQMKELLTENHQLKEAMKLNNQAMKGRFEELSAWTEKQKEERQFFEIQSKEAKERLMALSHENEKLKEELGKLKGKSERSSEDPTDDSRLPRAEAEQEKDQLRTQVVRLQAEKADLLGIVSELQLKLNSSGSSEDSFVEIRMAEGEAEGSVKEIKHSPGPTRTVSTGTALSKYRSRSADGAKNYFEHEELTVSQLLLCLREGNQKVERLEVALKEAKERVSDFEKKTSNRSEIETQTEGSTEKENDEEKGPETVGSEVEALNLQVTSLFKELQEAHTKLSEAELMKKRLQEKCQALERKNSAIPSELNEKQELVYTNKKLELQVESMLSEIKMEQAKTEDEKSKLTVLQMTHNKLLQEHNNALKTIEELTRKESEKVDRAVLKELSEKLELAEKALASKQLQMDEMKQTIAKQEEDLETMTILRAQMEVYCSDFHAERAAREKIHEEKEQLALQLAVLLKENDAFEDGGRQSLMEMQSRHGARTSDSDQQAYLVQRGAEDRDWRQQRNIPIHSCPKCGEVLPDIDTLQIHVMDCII
UniProt Q8TEA1: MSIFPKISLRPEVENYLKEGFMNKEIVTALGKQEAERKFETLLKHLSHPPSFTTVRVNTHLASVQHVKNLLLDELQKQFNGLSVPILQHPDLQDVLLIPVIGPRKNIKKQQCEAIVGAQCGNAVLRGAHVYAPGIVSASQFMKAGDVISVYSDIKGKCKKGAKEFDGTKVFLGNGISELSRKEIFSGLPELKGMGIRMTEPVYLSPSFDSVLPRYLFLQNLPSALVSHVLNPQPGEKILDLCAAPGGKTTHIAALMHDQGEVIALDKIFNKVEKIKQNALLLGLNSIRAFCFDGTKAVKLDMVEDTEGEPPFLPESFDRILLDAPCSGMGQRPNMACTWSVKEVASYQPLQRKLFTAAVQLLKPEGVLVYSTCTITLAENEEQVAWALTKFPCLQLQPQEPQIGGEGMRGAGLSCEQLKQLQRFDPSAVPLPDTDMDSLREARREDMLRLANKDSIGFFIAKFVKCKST
UniProt P49790, whole entry, looked up: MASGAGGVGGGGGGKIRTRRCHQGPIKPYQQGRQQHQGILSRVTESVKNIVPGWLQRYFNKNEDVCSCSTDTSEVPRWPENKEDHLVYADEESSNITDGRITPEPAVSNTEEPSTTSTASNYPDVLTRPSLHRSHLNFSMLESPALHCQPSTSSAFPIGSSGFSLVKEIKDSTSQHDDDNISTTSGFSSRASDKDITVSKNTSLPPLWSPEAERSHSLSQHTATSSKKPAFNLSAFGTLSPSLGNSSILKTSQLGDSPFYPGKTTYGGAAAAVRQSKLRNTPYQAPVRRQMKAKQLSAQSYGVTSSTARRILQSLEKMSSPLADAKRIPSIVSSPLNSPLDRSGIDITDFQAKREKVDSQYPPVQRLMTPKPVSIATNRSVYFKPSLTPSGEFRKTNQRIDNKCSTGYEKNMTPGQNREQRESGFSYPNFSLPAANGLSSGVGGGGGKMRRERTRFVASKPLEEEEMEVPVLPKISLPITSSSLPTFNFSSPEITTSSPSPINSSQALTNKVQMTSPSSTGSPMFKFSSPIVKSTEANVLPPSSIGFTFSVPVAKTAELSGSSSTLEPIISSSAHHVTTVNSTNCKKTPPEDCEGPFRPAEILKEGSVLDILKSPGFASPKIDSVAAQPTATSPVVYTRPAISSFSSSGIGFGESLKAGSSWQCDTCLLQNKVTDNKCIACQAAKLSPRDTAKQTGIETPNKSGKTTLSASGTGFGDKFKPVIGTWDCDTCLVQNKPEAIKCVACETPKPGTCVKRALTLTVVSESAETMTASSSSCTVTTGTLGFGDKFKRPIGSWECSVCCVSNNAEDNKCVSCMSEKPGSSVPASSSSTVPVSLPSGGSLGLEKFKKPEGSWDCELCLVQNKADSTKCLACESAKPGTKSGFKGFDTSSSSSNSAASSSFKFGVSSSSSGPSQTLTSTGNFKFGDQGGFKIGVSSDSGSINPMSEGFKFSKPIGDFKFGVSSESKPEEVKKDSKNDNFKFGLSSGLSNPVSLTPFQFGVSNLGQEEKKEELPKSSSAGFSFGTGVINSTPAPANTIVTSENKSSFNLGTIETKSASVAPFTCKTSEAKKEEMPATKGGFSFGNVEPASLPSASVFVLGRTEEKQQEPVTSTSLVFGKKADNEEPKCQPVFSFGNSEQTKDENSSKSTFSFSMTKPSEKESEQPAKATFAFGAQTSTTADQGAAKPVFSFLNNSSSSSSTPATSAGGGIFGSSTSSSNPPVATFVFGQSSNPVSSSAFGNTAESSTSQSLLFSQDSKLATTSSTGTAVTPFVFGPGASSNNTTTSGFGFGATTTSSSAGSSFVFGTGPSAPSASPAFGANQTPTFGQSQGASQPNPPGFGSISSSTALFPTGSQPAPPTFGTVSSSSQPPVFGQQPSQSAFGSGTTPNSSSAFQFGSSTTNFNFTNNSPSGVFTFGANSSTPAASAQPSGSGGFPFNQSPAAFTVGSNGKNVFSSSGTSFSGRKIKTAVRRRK
UniProt P13674: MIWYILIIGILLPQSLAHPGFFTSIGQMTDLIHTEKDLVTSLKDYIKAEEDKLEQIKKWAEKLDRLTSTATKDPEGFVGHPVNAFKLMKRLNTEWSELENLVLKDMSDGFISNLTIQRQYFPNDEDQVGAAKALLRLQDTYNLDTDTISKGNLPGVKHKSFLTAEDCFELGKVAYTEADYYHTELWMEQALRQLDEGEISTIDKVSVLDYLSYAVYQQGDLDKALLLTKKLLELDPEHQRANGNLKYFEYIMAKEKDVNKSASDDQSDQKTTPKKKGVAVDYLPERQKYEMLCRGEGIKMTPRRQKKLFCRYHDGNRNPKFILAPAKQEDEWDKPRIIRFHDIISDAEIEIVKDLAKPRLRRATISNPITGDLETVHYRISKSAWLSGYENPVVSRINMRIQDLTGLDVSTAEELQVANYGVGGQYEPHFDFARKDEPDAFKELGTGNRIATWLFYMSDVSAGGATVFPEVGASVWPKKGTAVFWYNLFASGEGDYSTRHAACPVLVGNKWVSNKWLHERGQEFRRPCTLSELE
UniProt Q9BXS6: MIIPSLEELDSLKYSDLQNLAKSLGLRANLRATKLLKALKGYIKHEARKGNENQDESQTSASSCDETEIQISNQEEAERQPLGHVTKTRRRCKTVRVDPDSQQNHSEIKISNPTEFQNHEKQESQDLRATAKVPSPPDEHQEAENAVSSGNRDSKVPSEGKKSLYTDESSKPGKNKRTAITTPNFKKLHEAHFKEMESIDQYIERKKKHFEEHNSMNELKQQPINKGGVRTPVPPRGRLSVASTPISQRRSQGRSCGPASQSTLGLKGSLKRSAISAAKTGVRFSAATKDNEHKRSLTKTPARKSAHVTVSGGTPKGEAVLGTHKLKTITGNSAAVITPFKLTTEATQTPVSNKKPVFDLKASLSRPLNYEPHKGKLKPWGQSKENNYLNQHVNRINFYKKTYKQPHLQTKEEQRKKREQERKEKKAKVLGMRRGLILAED
UniProt Q9NTK5, whole entry, looked up: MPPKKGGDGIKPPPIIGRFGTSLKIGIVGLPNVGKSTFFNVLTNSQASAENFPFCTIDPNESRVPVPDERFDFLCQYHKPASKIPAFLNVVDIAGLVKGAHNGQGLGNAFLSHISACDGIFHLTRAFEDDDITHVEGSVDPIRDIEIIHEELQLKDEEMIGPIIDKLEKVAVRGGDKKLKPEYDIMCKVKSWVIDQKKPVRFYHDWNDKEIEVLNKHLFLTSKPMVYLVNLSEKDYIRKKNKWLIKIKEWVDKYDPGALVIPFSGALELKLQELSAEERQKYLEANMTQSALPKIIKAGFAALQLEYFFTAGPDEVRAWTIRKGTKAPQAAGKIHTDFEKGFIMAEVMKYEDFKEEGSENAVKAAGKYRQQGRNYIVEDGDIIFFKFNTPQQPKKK
UniProt Q9Y5A7: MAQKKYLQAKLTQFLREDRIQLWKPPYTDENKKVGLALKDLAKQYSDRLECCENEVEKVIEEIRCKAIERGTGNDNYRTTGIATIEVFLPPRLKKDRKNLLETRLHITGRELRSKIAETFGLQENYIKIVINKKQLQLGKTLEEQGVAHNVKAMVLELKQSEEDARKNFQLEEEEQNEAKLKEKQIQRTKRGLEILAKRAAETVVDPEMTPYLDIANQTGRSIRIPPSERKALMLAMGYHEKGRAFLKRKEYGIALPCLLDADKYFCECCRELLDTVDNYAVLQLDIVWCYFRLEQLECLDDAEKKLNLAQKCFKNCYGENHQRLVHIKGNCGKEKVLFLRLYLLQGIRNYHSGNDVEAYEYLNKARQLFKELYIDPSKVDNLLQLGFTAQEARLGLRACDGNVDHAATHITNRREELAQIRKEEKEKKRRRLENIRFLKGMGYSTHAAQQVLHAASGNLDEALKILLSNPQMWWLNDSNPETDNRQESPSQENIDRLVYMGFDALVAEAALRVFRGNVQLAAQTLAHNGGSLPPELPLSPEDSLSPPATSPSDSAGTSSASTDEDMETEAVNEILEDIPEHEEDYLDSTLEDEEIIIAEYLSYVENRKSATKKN
UniProt Q9Y5Y2: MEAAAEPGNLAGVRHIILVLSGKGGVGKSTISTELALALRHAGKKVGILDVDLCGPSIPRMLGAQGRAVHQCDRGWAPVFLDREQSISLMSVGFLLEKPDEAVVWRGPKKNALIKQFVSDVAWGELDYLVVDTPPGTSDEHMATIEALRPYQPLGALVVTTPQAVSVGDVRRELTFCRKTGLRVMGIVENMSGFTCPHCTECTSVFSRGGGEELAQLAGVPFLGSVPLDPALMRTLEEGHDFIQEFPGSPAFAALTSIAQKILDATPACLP
UniProt Q9H857: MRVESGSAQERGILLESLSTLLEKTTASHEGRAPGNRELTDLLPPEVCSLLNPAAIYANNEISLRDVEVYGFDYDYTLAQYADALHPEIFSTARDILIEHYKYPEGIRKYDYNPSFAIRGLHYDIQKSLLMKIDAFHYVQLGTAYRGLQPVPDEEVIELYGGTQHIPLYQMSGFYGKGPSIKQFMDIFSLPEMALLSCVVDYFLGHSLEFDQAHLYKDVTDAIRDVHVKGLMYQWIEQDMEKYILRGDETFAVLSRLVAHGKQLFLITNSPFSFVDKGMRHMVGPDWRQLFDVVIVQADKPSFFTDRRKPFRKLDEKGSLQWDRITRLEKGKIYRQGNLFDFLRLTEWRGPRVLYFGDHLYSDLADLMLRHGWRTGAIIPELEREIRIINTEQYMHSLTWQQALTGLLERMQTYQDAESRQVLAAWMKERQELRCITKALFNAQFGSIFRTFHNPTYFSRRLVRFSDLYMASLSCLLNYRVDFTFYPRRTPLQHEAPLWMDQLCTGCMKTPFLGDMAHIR

Each target was assayed with Cc1cc(Nc2cc(N3CCN(C)CC3)nc(Sc3ccc(NC(=O)C4CC4)cc3)n2)n[nH]1 [tozasertib] (assay: log2 fold change, soluble protein after heating vs DMSO (PISA); higher = thermal stabilisation; K562 cells, 10 uM, 30 min; active = over 0.2 and 3.5 SD of the protein, either way, in both replicates (recomputed)).
Method in brief: (§1)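 Soluble protein was defined as the supernatant after 21,000xg for 90 min. It came from K562 cells at 2×10^6 cells/mL given 10 μM compound for 30 min, heated in aliquots for 3 min across 48°C-58°C, pooled, and extracted in PBS with 0.5% NP-40 at 4°C, and was quantified by TMTpro 16plex LC-MS/MS with equalised channel sums. Thermal stability against control samples, from duplicates, is reported as log2 fold change.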

Row | Target | log2 fold change
1 | NT5C2 (UniProt P49902) | inactive: -0.063
2 | ORC4 (UniProt O43929) | inactive: -0.041
3 | NUDT16L1 (UniProt Q9BRJ7) | inactive: -0.027
4 | OS9 (UniProt Q13438) | inactive: 0
5 | NUDT19 (UniProt A8MXV4) | inactive: 0.017
6 | PABPC1 (UniProt P11940) | inactive: 0.035
7 | NT5DC3 (UniProt Q86UY8) | inactive: -0.017
8 | NUP37 (UniProt Q8NFH4) | inactive: 0.021
9 | OPTN (UniProt Q96CV9) | inactive: 0.127
10 | NUP43 (UniProt Q8NFH3) | inactive: 0.007
11 | OTUD7B (UniProt Q6GQQ9) | inactive: 0.036
12 | NSUN6 (UniProt Q8TEA1) | inactive: 0.007
13 | NUP153 (UniProt P49790) | inactive: 0.029
14 | P4HA1 (UniProt P13674) | inactive: 0.068
15 | OTUB1 (UniProt Q96FW1) | inactive: -0.012
16 | P3H1 (UniProt Q32P28) | inactive: 0.065

Row | Target | log2 fold change
17 | NUP88 (UniProt Q99567) | inactive: 0.037
18 | OSTF1 (UniProt Q92882) | inactive: 0.023
19 | NUDT4 (UniProt Q9NZJ9) | inactive: 0.028
20 | NUSAP1 (UniProt Q9BXS6) | inactive: -0.041
21 | OIP5 (UniProt O43482) | inactive: 0.047
22 | OLA1 (UniProt Q9NTK5) | inactive: -0.013
23 | NUB1 (UniProt Q9Y5A7) | inactive: 0.073
24 | NUBP2 (UniProt Q9Y5Y2) | inactive: -0.019
25 | OGFOD3 isoform 2 (UniProt Q6PK18) | inactive: 0.089
26 | NUS1 (UniProt Q96E22) | inactive: 0.025
27 | NUBPL (UniProt Q8TB37) | inactive: -0.006
28 | NUP42 (UniProt O15504) | inactive: 0.073
29 | OGDH (UniProt Q02218) | inactive: 0
30 | P4HA1 isoform 2 (UniProt P13674) | inactive: 0.035
31 | NT5DC2 isoform 2 (UniProt Q9H857) | inactive: -0.016
32 | NUTF2 (UniProt P61970) | inactive: 0.05

The targets below were run with Cc1cc(SCc2sc(-c3ccc(C(F)(F)F)cc3)nc2C)ccc1OCC(=O)O in the same assay as above.
Method in brief: as §1

Row | Target | log2 fold change
33 | NT5C2 (UniProt P49902) | inactive: -0.002
34 | ORC4 (UniProt O43929) | inactive: 0.103
35 | NUDT16L1 (UniProt Q9BRJ7) | inactive: 0.032
36 | OS9 (UniProt Q13438) | inactive: 0.014
37 | NUDT19 (UniProt A8MXV4) | inactive: 0.058
38 | PABPC1 (UniProt P11940) | inactive: 0.015
39 | NT5DC3 (UniProt Q86UY8) | inactive: 0.038
40 | NUP37 (UniProt Q8NFH4) | inactive: 0.012
41 | OPTN (UniProt Q96CV9) | inactive: -0.007
42 | NUP43 (UniProt Q8NFH3) | inactive: -0.02
43 | OTUD7B (UniProt Q6GQQ9) | inactive: -0.225
44 | NSUN6 (UniProt Q8TEA1) | inactive: 0.029
45 | NUP153 (UniProt P49790) | inactive: -0.055
46 | P4HA1 (UniProt P13674) | inactive: 0.051
47 | OTUB1 (UniProt Q96FW1) | inactive: 0.021
48 | P3H1 (UniProt Q32P28) | inactive: 0.097

Row | Target | log2 fold change
49 | NUP88 (UniProt Q99567) | inactive: 0.107
50 | OSTF1 (UniProt Q92882) | inactive: 0.017
51 | NUDT4 (UniProt Q9NZJ9) | inactive: 0.056
52 | NUSAP1 (UniProt Q9BXS6) | inactive: -0.005
53 | OIP5 (UniProt O43482) | inactive: -0.07
54 | OLA1 (UniProt Q9NTK5) | inactive: -0.005
55 | NUB1 (UniProt Q9Y5A7) | inactive: 0.197
56 | NUBP2 (UniProt Q9Y5Y2) | inactive: 0.039
57 | OGFOD3 isoform 2 (UniProt Q6PK18) | inactive: 0.014
58 | NUS1 (UniProt Q96E22) | inactive: 0.034
59 | NUBPL (UniProt Q8TB37) | inactive: -0.067
60 | NUP42 (UniProt O15504) | inactive: -0.012
61 | OGDH (UniProt Q02218) | inactive: 0.151
62 | P4HA1 isoform 2 (UniProt P13674) | inactive: 0.098
63 | NT5DC2 isoform 2 (UniProt Q9H857) | inactive: -0.016
64 | NUTF2 (UniProt P61970) | inactive: -0.029

The targets below were run with Cc1ccc(-n2nc(C(C)(C)C)cc2NC(=O)Nc2ccc(OCCN3CCOCC3)c3ccccc23)cc1 [doramapimod] in the same assay as above.
Method in brief: as §1

Row | Target | log2 fold change
65 | NT5C2 (UniProt P49902) | inactive: -0.015
66 | ORC4 (UniProt O43929) | inactive: -0.03
67 | NUDT16L1 (UniProt Q9BRJ7) | inactive: 0.044
68 | OS9 (UniProt Q13438) | inactive: 0.032
69 | NUDT19 (UniProt A8MXV4) | inactive: -0.056
70 | PABPC1 (UniProt P11940) | inactive: -0.012
71 | NT5DC3 (UniProt Q86UY8) | inactive: -0.009
72 | NUP37 (UniProt Q8NFH4) | inactive: -0.054
73 | OPTN (UniProt Q96CV9) | inactive: 0.02
74 | NUP43 (UniProt Q8NFH3) | inactive: 0.008
75 | OTUD7B (UniProt Q6GQQ9) | inactive: -0.052
76 | NSUN6 (UniProt Q8TEA1) | inactive: -0.038
77 | NUP153 (UniProt P49790) | inactive: -0.002
78 | P4HA1 (UniProt P13674) | inactive: 0.077
79 | OTUB1 (UniProt Q96FW1) | inactive: -0.035
80 | P3H1 (UniProt Q32P28) | inactive: 0.058

Row | Target | log2 fold change
81 | NUP88 (UniProt Q99567) | inactive: 0.063
82 | OSTF1 (UniProt Q92882) | inactive: -0.023
83 | NUDT4 (UniProt Q9NZJ9) | inactive: -0.027
84 | NUSAP1 (UniProt Q9BXS6) | inactive: 0.201
85 | OIP5 (UniProt O43482) | inactive: -0.007
86 | OLA1 (UniProt Q9NTK5) | inactive: -0.021
87 | NUB1 (UniProt Q9Y5A7) | inactive: 0.072
88 | NUBP2 (UniProt Q9Y5Y2) | inactive: -0.011
89 | OGFOD3 isoform 2 (UniProt Q6PK18) | inactive: 0.014
90 | NUS1 (UniProt Q96E22) | inactive: -0.004
91 | NUBPL (UniProt Q8TB37) | inactive: -0.007
92 | NUP42 (UniProt O15504) | inactive: 0.392
93 | OGDH (UniProt Q02218) | inactive: 0.025
94 | P4HA1 isoform 2 (UniProt P13674) | inactive: 0.004
95 | NT5DC2 isoform 2 (UniProt Q9H857) | inactive: -0.053
96 | NUTF2 (UniProt P61970) | inactive: -0.01
